{"sequences": {"note": "Amino acid sequences for entries named in this document (tags omitted).", "UniProt Q8NER1, whole entry, looked up": "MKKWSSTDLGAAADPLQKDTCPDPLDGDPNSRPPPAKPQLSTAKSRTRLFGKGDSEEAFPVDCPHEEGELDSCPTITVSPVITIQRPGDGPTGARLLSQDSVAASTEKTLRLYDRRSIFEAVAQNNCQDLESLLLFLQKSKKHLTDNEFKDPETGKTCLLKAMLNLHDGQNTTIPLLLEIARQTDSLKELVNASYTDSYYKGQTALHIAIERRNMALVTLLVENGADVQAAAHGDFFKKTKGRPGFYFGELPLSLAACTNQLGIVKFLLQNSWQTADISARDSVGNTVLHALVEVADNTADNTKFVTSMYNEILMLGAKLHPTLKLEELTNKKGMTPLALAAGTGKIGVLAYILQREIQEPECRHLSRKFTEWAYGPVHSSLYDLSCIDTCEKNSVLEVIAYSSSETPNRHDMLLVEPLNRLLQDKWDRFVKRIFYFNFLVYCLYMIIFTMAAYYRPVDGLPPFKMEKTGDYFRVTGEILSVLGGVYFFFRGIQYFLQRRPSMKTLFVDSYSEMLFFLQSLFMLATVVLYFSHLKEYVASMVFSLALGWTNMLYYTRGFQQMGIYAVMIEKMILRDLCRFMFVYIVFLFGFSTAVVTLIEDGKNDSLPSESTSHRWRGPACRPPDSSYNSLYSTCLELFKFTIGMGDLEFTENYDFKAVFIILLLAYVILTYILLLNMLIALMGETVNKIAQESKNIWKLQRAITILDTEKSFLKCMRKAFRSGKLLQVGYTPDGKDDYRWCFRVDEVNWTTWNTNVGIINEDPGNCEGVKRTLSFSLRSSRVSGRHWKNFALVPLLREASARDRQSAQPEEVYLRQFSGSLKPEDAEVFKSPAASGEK"}, "source": "PubChem BioAssay AID540275", "about": "(National Center for Advancing Translational Sciences (NCATS), 2011)", "note": "About 620 (0.19%) of roughly 320,000 compounds were called active. The inconclusive results got no clear call from the source; some entries with a clear call stand among them for comparison. Rule as the data show it: active = activation above about 80%; inconclusive = between about 30% and that limit; inactive = weaker than that."}
{"target": "Transient receptor potential cation channel subfamily V member 1 (Homo sapiens) (UniProt Q8NER1)", "assay": "HTS Assay for Compounds that Act as Agonists of the Vanilloid Receptor 1; also: 0% is about no effect", "conditions": "TRPV1-expressing cells, Fluo-8 calcium influx, agonist mode; at 8.33 µM, hits give high values", "how_it_was_run": "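TRPV1-expressing cells were cultured overnight at 35.5C and loaded with Fluo-8 calcium dye for 40 to 90 min at room temperature. After a 10 s baseline, compound was added and calcium influx was read kinetically for 3 min (ex 480/em 520 nm).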"}
{"smiles": "C(=N\\n1cnnc1)/c1nc2ccccc2[nH]1", "activation": "inactive: 0.662%"}
{"smiles": "CCOC(=O)c1[nH]c2ccccc2c1NC(=O)NC1CCCCC1", "activation": "inconclusive: 30.5%"}
{"smiles": "Cc1cccc(N2CCN(C(=O)C34CC5CC(CC(C5)C3)C4)CC2)c1C", "activation": "inconclusive: 34.4%"}
{"smiles": "CCOC(=O)c1c(-c2ccccc2)oc2ccc(OCC(N)=O)cc12", "activation": "inconclusive: 36.5%"}
{"smiles": "Cc1ccc2ncc(S(=O)(=O)c3ccccc3)c(N3CCCCC3C)c2c1", "note": "(stereo not given)", "activation": "inconclusive: 42.7%"}
{"smiles": "c1cncc(Nc2nc(-c3cccs3)cs2)c1", "activation": "inconclusive: 30.3%"}
{"smiles": "N/C(=N\\OC(=O)/C=C/c1ccccc1Cl)c1ccncc1", "activation": "inconclusive: 63.1%"}
{"smiles": "CCOc1cccc(/C=C/c2ccc3cccc(O)c3n2)c1O", "activation": "inactive: 1.73%"}
{"smiles": "Cc1cccc(OCCCC(=O)Nc2ccc(S(N)(=O)=O)cc2)c1C", "activation": "inconclusive: 55.8%"}
{"smiles": "C/C(=N\\NC(=S)NC1CCCCC1)c1ccccc1", "activation": "inconclusive: 73.6%"}
{"smiles": "CCCN1C(=O)SC(CC(=O)Nc2ccccc2)C1=O", "note": "(stereo not given)", "activation": "inconclusive: 40.4%"}
{"smiles": "CC(C)CCNC(=O)Nc1ccc2c(c1)N(C)C(=O)CS2", "activation": "inconclusive: 58.5%"}
{"smiles": "COc1ccccc1C1CCN(Cc2ccccc2)CC1", "activation": "inactive: 4.24%"}
{"smiles": "O=C(NCc1ccccn1)c1cc(-c2ccccc2)nc2ccccc12", "activation": "inactive: 0.472%"}
{"smiles": "O=C(/C=C/c1c(F)cccc1Cl)NCc1ccc2c(c1)OCO2", "activation": "inconclusive: 33.6%"}
{"smiles": "O=C(Nc1ccc(Cl)cc1Cl)c1cc2ccccc2o1", "activation": "inconclusive: 36.5%"}
{"smiles": "COC(=O)Cn1cnc2c(nnn2-c2ccc(OC)cc2)c1=O", "activation": "inactive: 2.05%"}
{"smiles": "C#Cc1ccc([C@H]2C=C(C(=O)N3CCN(Cc4ccc5c(c4)OCO5)CC3)O[C@@H](OCc3ccc(CO)cc3)C2)cc1", "activation": "inactive: -2.62%"}
{"smiles": "COc1ccc(OC)c(-c2cnc(OC(C)(C)C)nc2OC(C)(C)C)c1", "activation": "inconclusive: 58%"}
{"smiles": "CCN(CC)c1ccc(NC(=O)c2ccccc2F)cc1", "activation": "inconclusive: 70.8%"}
{"smiles": "O=C(Nc1ccc(Cl)c([N+](=O)[O-])c1)c1ccc(NCCCN2CCOCC2)c([N+](=O)[O-])c1", "activation": "inactive: 4.94%"}
{"smiles": "COc1ccc(OC(C)C(=O)Nc2ccc(F)cc2F)cc1", "note": "(stereo not given)", "activation": "inactive: 6.07%"}
{"smiles": "C=CCNC(=O)c1ccccc1NC(=O)c1cccc2ccccc12", "activation": "inconclusive: 30.6%"}
{"smiles": "O=C(Nc1ccc(Cl)c(Cl)c1)N1CC=C(c2ccccc2)CC1", "activation": "inconclusive: 64.8%"}
{"smiles": "COC(=O)c1cn(NC(=O)c2ccc3c(c2)OCO3)c(=O)c2ccccc12", "activation": "active: 80.5%"}
{"smiles": "Cc1cc(C(=O)N2CCCC(C(=O)c3ccc(Cl)cc3C)C2)no1", "note": "(stereo not given)", "activation": "inconclusive: 40.8%"}
{"smiles": "Cc1ccc(C)c(N2CCN(C(=O)CCS(=O)(=O)c3ccc4c(c3)NC(=O)C(C)S4)CC2)c1", "note": "(stereo not given)", "activation": "inconclusive: 42%"}
{"smiles": "CC(C)(C)NC(=O)Cn1c(SCC(N)=O)nc2ccccc21", "activation": "inactive: 2.1%"}
{"smiles": "COCCn1c(N)c(S(=O)(=O)c2cccs2)c2nc3ccccc3nc21", "activation": "inactive: 2.5%"}
{"smiles": "CCOc1cc(/C=C2\\SC(=O)N(c3ccc(O)cc3)C2=O)ccc1O", "activation": "inactive: 0.95%"}
{"smiles": "C=CCNC(=O)c1onc(CSc2ccc(F)cc2)c1C(=O)NCC=C", "activation": "inconclusive: 31.1%"}
{"smiles": "CCOC(=O)Nc1c(C(=O)OC)[nH]c2cc(OC)ccc12", "activation": "inconclusive: 32.5%"}
{"smiles": "CC1=NN(/C(=N\\c2nnc(C)s2)Nc2ccc(C)cc2)[C@H](c2ccc(C)cc2)S1", "activation": "inconclusive: 34.1%"}
{"smiles": "Cc1onc(-c2ccccc2)c1C(=O)Nc1ccc(S(=O)(=O)N2CCCC2)cc1", "activation": "inconclusive: 34.6%"}
{"smiles": "Cc1cc(OCCN2CCOCC2)ccc1Cl", "activation": "inactive: -5.2%"}
{"smiles": "Cc1ccc2nc(-c3ccc(NC(=O)COC(=O)c4ccc(Br)o4)cc3)sc2c1", "activation": "inactive: 1.12%"}
{"smiles": "CCCCn1c(NCc2ccccc2NS(=O)(=O)c2ccc(C)cc2)nc2ccccc21", "activation": "inactive: -1.32%"}
{"smiles": "C=CCOc1ccc(/C=C/C(=O)OCC(=O)NCc2cccs2)cc1", "activation": "inconclusive: 31.3%"}
{"smiles": "O=C(Nc1ccc(Cl)cc1)N1CCC(CO)(Cc2ccccc2)CC1", "activation": "inconclusive: 50.6%"}
{"smiles": "COc1cccc(/C=C/C(=O)c2ccc3c(c2)OCO3)c1OC", "activation": "inconclusive: 47.3%"}
{"smiles": "COc1ccc(C(=O)NC23CC4CC(CC(C4)C2)C3)cc1", "activation": "inconclusive: 43.3%"}
{"smiles": "CCC(C)(C)C1CCC(=NNc2nc3ccccc3[nH]2)CC1", "note": "(stereo not given)", "activation": "inconclusive: 34%"}
{"smiles": "COc1cc(/C=C/c2nc3ccccc3s2)cc(OC)c1O", "activation": "inactive: 5.8%"}
{"smiles": "O=C(NC(=S)NCCc1ccccc1)c1ccccc1", "activation": "inconclusive: 47.4%"}
{"smiles": "CCCCC[C@H]1CN(CCCC)C(=O)[C@@H]1CC(=O)NCc1ccccc1", "activation": "inconclusive: 54.3%"}
{"smiles": "COc1ccc2c(CCNC(=O)Nc3ccccc3)c[nH]c2c1", "activation": "inconclusive: 30.2%"}
{"smiles": "O=C(Nc1ccccc1N1CCOCC1)c1ccco1", "activation": "inactive: 0.479%"}
{"smiles": "COC(=O)c1[nH]c2cc(C)ccc2c1NC(=O)CN1CCN(c2ccccc2OC)CC1", "activation": "inconclusive: 64.9%"}
{"smiles": "N#Cc1ccccc1OCCCN1CCC(Cc2ccccc2)CC1", "activation": "inactive: 6.02%"}
{"smiles": "Cc1oc(C(C)(C)C)cc1C(=O)NC1CCN(Cc2ccccc2)CC1", "activation": "inconclusive: 68.8%"}
{"smiles": "CC(/C=N\\NC(=O)Cn1cncn1)=C/c1ccc(C(C)C)cc1", "activation": "inconclusive: 52.8%"}
{"smiles": "CC(C)CN(CC(C)C)S(=O)(=O)N1CCC(C(=O)NCc2ccc3c(c2)OCO3)CC1", "activation": "inconclusive: 53.3%"}
{"smiles": "CCOC(=O)/C(=N\\Nc1ccccc1)P(=O)(c1ccccc1)c1ccccc1", "activation": "inconclusive: 44.3%"}
{"smiles": "CC(C)Cc1nc(N2CCN(C(=O)c3ccco3)CC2)c(C#N)c2c1CCCC2", "activation": "inconclusive: 64%"}
{"smiles": "CCc1ccc(OCC(=O)Nc2ccc3[nH]ncc3c2)cc1", "activation": "inconclusive: 76.3%"}
{"smiles": "CCOC(=O)CSc1nc2c(sc3ccccc32)c(=O)n1CCCN1CCOCC1", "activation": "inconclusive: 68.2%"}
{"smiles": "COc1ccc(NC(=O)NC(C)c2ccc3c(c2)OCO3)cc1OC", "note": "(stereo not given)", "activation": "inconclusive: 62.5%"}
{"smiles": "Cc1ccc(C(C(=O)NC2CCCC2)N(C(=O)Cc2cccs2)c2ccc3c(c2)OCCO3)cc1", "note": "(stereo not given)", "activation": "inconclusive: 62.7%"}
{"smiles": "Cc1cc(C2(c3ccc(O)c(C)c3)C(=O)Nc3ccccc32)ccc1O", "activation": "inconclusive: 33.3%"}
{"smiles": "Cc1[nH]c2ccccc2c1C(=O)C(=O)N1CCN(c2cccc(Cl)c2)CC1", "activation": "inactive: 3%"}
{"smiles": "Cc1ccc(NC(=S)NCCc2c[nH]c3ccccc23)c(C)c1", "activation": "inconclusive: 32.4%"}
{"smiles": "CC12CCC(C(=O)N(CSC(=S)N/N=C\\c3ccccc3)C1=O)C2(C)C", "note": "(stereo not given)", "activation": "inactive: -0.995%"}
{"smiles": "Cc1ccc(SCCN2CCN(CC(C)C)CCC2=O)cc1", "activation": "inconclusive: 67.5%"}
{"smiles": "COc1ccc(NC2=C(C(C)=O)C(c3ccc(OC)cc3)C(C(C)=O)C(C)(O)C2)cc1", "note": "(stereo not given)", "activation": "inconclusive: 33.6%"}
{"smiles": "Cc1ccc(NC(=O)CN(C)CC(=O)N(C)Cc2ccccc2)cc1", "activation": "inconclusive: 44.1%"}
{"smiles": "COc1ccc(CC(=O)N/N=C/c2ccc(Cl)s2)cc1OC", "activation": "inconclusive: 48.1%"}
{"smiles": "O=[N+]([O-])c1cccc(-c2csc(Nc3ccccc3)n2)c1", "activation": "inactive: 0.697%"}
{"smiles": "CCCCOP(=O)(OCCCC)C(Nc1ccccc1)c1ccc2c(c1)OCO2", "note": "(stereo not given)", "activation": "inconclusive: 32.1%"}
{"smiles": "CCC(C)NC(=S)N1CCN(Cc2ccccc2)CC1", "note": "(stereo not given)", "activation": "inconclusive: 38.6%"}
{"smiles": "Cc1ccc2oc(C(=O)N(Cc3ccc(N(C)C)cc3)CC3CCCO3)c(C)c2c1", "note": "(stereo not given)", "activation": "inconclusive: 43.2%"}
{"smiles": "COc1ccc(-c2cn[nH]c2-c2ccc(OCc3ccccc3)cc2O)cc1", "activation": "inactive: 0.883%"}
{"smiles": "C/C(=N\\NC(=O)Nc1ccccc1)c1ccc2ccccc2c1", "activation": "inactive: -0.211%"}
{"smiles": "C/C(=N\\NC(=O)c1nc2ccccn2c1C)c1cc2ccccc2o1", "activation": "inactive: 1.68%"}
{"smiles": "CCCN(C(=O)C(C)Oc1cccc(Cl)c1)c1c(N)n(Cc2ccccc2)c(=O)[nH]c1=O", "note": "(stereo not given)", "activation": "inactive: 7.22%"}
{"smiles": "CC(C)(C)C1CCc2onc(C(=O)NCc3ccc(F)cc3)c2C1", "note": "(stereo not given)", "activation": "inconclusive: 37.4%"}
{"smiles": "CC(=O)NC(=S)Nc1ccc(NC(=O)COc2ccc(C(C)C)cc2)cc1", "activation": "inconclusive: 40.2%"}
{"smiles": "NC(=O)COc1ccc(Cc2ncc(C(F)(F)F)cc2Cl)cc1", "activation": "inconclusive: 30.3%"}
{"smiles": "CCCCC(=O)Nc1ccc(C(=O)NNC(=S)NC(=O)c2ccco2)cc1", "activation": "inconclusive: 47.5%"}
{"smiles": "CN(CC(=O)Nc1cccc(F)c1)C(=O)c1cc(-c2ccco2)nc2ccccc12", "activation": "inconclusive: 31.9%"}
{"smiles": "CCc1ccc(OCCCOc2ccc(C=O)cc2)cc1", "activation": "inconclusive: 32.3%"}
{"smiles": "O=c1cc(N2CCN(c3ccccc3Cl)CC2)[nH]c(=O)n1Cc1ccc(F)cc1", "activation": "inconclusive: 58.5%"}
{"smiles": "Cc1ccc(-n2nc3c(N4CCC(C(=O)NCc5ccc(C)o5)CC4)nnc(C)c3c2C)cc1", "activation": "inconclusive: 45%"}
{"smiles": "Cc1cnc(NC(=O)c2cc3c(s2)CCCC3)s1", "activation": "active: 89.3%"}
{"smiles": "Cc1ccc(OCC(=O)N2N=C(c3ccc(Cl)cc3)CC2c2ccco2)c([N+](=O)[O-])n1", "note": "(stereo not given)", "activation": "inactive: 0.61%"}
{"smiles": "C#Cc1cccc(C(=O)N2CCCC(Nc3cccc(F)c3)C2)c1", "note": "(stereo not given)", "activation": "inconclusive: 66.6%"}
{"smiles": "O=C(NC1CCCCC1)C(c1ccccc1)N(Cc1ccc2c(c1)OCO2)C(=O)c1cnsn1", "note": "(stereo not given)", "activation": "inconclusive: 38.4%"}
{"smiles": "Cc1ccc(C)n1-c1sc2c(c1C(=O)O)CCCC2", "activation": "inactive: -0.263%"}
{"smiles": "O=C(Nc1ccc(F)cc1)C1CCN(S(=O)(=O)c2cccs2)CC1", "activation": "inconclusive: 61.2%"}
{"smiles": "Nc1c(Cl)cc(-c2csc(N3CCCC3c3nc4cc(Cl)c(Cl)cc4n3CCOCCO)n2)cc1Cl", "note": "(stereo not given)", "activation": "inconclusive: 35.3%"}
{"smiles": "O=C(/C=C/c1ccc(F)cc1)Nc1ccc(S(=O)(=O)N2CCOCC2)cc1", "activation": "inconclusive: 45.7%"}
